Test results: patent CN116836274A
These are yes or no findings as the source states them, for the method shown. Some entries that bind do so weakly or less than the wild type.

T1: 血清淀粉样蛋白A (Serum amyloid A, SAA), 购自Yashraj biotechnology limited, 货号FRSAA-61 (UniProt P0DJI8)
T1 sequence (looked up): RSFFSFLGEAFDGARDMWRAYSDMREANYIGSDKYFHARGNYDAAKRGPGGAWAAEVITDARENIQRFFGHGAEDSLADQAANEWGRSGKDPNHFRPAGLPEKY


Target: T1, 血清淀粉样蛋白A (Serum amyloid A, SAA), 购自Yashraj biotechnology limited, 货号FRSAA-61
Assay: screening of mutants, method not detailed

| binding | Binder |
| --- | --- |
| binds | Anti-SAA-11A4mut1 (antibody, mouse IgG1, kappa, V domains shown) VH: QVQLQQSGAELVRPGVSVKISCKGSGYTFTDYAMHWVKQSHAKSLEWIGVINTYYGDASYNQKFKGKATMTEDKSSSTVYMELARLTSEDSAIYYCARGSSIMITSWFAYWGQGTLVTVSA VL: DIQMTQSPASLSASVGETVTITCRASENIYSYLAWYQQKQGKSPQLLVYNAKTLAEGVPSRFSGSGSGTQFSLKINSLQPEDFGSYYCQHHYGTPLTFGTGTKLELKR |
| binds | Anti-SAA-11A4mut2 (antibody, mouse IgG1, kappa, V domains shown) VH: QVQLQQSGAELVRPGVSVKISCKGSGYTFTDYAMHWVKQSHAKSLEWIGVINTYYGDASYNQKFKGKATMTEDKSSSTVYMELARLTSEDSAIYYCARGSSLMITSWFAYWGQGTLVTVSA VL: DIQMTQSPASLSASVGETVTITCRASENIYSYLAWYQQKQGKSPQLLVYNAKTLAEGVPSRFSGSGSGTQFSLKINSLQPEDFGSYYCQHHYGTPLTFGTGTKLELKR |
